Data reported in patent US20160340415A1.
These are yes or no findings as the source states them, for the method shown. In cells and extracts the contact can be indirect. Some binding calls cover weakened binding; strength is not graded here.

By UniProt entry, the sequences of proteins in these tests, tags left out. Where a name states a change or a piece, a line headed by the entry shows the natural chain unless it says otherwise.
UniProt Q2FFA2: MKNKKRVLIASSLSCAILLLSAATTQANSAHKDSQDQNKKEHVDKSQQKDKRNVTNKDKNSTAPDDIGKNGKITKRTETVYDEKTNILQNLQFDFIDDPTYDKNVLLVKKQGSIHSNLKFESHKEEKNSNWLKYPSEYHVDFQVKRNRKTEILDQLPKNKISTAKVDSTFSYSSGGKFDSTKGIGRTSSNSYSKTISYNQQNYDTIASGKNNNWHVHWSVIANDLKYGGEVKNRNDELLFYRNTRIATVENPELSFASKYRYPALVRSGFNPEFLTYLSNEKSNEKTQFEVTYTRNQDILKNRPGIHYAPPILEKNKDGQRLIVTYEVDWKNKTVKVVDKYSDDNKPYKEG

B1: LukG_H19 (protein)
chain: NSEIKQVSEKNLDGETKMYTRTATTSDSQKNITQSLQFNFLTEKNYDKETVFIKAKGTIGSGLRILEPNGYWNSTLRWPGSYSVSIQNVDDNNNTNVTDFAPKNQDESREVKYTYGYKTGGDFSINQGGLTGNITKESNYSETISYQQPSYRTLIDQPTTNKGVAWKVEAHLINNMGHDHTRQLTNDSDDRVKSEIFSLTRNGNLWAKDNFTPKNKMPVTVSEGFNPEFLAVMSHDKKDEGKSKFVVHYKRSMDEFKIDWNKHGFWGYWSGENHVDKKEEKLSALYEVDWKTHNVKFIKVLNDKEKK
B2: LukG_MRSA252 (protein)
chain: EIKSKITTVSEKNLDGDTKMYTRTATTSDTEKKISQSLQFNFLTEPNYDKETVFIKAKGTIGSGLKILNPNGYWNSTLRWPGSYSVSIQNVDDNNNSTNVTDFAPKNQDESREVKYTYGYKTGGDFSINRGGLTGNITKEKNYSETISYQQPSYRTLIDQPTTNKGVAWKVEAHSINNMGHDHTRQLTNDSDDRVKSEIFSLTRNGNLWAKDNFTPKNKMPVTVSEGFNPEFLAVMSHDKNDKGKSRFIVHYKRSMDDFKLDWNKHGFWGYWSGENHVDQKEEKLSALYEVDWKTHDVKLIKTINDKEQK

Tests used:
[1] = target: LukH_H19 (Staphylococcus aureus H19) (UniProt Q2FFA2); test: co-expression in E. coli; IMAC through NusA/His6 on LukG, with un-tagged LukH co-purified; the complex was kept through tag removal and cation exchange
[2] = target: T1, LukH_MRSA252 (Staphylococcus aureus MRSA252) (UniProt Q6GF49); test: as above
T1 sequence: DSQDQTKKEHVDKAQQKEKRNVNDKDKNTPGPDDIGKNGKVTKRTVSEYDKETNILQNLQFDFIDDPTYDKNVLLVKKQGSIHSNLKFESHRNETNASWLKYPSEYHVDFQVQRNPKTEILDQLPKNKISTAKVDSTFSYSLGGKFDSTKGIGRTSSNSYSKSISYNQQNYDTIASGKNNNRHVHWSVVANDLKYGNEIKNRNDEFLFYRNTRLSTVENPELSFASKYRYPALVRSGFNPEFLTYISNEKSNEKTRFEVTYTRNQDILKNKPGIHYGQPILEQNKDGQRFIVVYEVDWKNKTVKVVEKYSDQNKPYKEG

Row | Binder | binding [1] | binding [2]
1 | B1 | binds | –
2 | B2 | – | binds
